Results on 33 targets are retold here after the supplement of paper PMC10849652.

Protein sequences, listed by entry. Tags and fused reporters are not part of them. Lines headed by an entry give the natural chain unless they say otherwise; changes in a name come on top.
UniProt O95336: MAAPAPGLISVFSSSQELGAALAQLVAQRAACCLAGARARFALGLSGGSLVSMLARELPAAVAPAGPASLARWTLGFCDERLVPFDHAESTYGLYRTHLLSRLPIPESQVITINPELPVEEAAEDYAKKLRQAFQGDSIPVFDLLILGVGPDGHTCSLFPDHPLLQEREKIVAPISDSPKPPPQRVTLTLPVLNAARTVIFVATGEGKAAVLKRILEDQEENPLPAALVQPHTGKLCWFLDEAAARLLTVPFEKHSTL
UniProt Q8IZ21: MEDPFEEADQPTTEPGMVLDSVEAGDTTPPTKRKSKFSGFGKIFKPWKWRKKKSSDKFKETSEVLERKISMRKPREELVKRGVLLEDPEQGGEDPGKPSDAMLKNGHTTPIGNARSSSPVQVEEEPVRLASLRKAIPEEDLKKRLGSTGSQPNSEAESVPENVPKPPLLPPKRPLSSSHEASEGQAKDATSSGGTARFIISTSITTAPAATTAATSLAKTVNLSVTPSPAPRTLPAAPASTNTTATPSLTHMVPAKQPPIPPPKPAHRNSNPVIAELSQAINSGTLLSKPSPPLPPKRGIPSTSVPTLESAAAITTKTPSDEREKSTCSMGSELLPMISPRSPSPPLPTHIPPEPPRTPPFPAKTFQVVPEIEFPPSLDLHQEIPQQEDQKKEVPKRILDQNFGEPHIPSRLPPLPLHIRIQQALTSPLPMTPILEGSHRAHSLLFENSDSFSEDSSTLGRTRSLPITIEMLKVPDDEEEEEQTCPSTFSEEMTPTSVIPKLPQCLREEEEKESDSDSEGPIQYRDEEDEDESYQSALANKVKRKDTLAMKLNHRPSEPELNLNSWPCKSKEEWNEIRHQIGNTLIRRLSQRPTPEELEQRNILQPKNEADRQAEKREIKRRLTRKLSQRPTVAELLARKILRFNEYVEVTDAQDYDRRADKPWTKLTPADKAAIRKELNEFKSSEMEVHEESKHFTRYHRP
UniProt Q8IV08: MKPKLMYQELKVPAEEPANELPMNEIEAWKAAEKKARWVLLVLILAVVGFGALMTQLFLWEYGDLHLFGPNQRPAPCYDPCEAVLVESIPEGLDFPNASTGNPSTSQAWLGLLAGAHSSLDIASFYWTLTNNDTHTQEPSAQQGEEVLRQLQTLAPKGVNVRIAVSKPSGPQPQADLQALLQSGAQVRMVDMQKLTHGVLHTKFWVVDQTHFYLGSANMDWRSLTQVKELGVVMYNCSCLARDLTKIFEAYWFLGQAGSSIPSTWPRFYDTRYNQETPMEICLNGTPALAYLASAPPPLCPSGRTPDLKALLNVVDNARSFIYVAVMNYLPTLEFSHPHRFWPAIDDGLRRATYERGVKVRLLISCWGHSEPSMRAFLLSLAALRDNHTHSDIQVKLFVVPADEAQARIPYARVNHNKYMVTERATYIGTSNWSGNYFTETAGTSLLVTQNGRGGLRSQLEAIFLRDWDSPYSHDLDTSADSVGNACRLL
UniProt Q9Y2I7: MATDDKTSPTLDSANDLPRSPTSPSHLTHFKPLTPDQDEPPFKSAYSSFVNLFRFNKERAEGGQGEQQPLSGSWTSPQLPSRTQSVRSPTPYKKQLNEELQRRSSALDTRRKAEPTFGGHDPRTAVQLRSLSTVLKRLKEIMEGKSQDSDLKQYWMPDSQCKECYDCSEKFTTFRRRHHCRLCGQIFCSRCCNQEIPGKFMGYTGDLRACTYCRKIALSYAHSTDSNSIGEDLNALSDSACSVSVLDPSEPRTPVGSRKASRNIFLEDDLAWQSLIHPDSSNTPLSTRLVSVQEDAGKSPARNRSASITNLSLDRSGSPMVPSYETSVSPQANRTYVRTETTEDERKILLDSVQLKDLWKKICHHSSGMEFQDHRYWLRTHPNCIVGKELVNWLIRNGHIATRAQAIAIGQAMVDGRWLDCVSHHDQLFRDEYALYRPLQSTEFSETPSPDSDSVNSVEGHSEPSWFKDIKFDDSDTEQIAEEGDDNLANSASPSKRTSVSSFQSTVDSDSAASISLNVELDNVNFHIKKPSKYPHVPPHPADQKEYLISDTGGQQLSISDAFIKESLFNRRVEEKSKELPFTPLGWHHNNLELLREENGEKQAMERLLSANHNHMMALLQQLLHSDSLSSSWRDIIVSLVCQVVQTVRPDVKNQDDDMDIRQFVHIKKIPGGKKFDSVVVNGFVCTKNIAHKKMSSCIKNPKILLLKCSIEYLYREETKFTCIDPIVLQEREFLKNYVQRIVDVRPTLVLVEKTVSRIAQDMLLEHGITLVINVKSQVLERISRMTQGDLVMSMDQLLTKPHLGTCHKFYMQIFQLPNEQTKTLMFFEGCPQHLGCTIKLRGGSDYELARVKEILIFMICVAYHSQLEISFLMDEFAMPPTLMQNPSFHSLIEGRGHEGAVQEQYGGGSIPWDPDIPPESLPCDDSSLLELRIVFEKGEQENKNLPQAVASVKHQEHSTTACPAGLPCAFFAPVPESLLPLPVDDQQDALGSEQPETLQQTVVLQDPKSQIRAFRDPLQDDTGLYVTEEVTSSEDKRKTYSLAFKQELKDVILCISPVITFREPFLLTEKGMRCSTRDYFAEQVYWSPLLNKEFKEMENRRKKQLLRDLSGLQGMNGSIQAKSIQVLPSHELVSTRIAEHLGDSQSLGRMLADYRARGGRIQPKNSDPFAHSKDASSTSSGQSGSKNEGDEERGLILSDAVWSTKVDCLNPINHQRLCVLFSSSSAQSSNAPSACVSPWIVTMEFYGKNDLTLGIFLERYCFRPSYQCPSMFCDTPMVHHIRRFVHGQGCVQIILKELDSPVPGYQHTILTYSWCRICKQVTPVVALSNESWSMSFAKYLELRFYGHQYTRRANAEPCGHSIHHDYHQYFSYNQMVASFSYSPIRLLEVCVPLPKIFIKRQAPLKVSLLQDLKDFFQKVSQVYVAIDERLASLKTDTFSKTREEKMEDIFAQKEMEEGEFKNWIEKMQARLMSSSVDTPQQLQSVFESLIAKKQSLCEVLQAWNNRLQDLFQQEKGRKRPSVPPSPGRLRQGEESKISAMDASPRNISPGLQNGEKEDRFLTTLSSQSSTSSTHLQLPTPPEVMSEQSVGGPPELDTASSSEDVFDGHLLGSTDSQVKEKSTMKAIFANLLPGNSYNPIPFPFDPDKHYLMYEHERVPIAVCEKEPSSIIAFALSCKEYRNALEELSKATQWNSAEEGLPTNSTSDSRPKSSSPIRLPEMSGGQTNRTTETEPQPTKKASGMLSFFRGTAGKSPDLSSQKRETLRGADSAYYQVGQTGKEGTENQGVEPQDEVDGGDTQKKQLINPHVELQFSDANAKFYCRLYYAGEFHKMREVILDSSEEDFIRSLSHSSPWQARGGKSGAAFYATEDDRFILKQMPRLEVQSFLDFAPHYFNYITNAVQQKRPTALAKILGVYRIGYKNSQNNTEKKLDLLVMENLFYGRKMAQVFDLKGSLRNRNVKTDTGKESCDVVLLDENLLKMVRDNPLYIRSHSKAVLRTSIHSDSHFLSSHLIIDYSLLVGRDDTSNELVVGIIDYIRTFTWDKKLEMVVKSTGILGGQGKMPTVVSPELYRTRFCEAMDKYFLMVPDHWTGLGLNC
UniProt Q9GZP4: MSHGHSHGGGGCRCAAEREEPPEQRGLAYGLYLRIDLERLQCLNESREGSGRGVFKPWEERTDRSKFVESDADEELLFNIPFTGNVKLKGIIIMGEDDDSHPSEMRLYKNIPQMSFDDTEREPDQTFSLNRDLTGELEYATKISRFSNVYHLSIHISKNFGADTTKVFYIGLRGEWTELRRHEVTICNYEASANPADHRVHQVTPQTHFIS
UniProt Q13608: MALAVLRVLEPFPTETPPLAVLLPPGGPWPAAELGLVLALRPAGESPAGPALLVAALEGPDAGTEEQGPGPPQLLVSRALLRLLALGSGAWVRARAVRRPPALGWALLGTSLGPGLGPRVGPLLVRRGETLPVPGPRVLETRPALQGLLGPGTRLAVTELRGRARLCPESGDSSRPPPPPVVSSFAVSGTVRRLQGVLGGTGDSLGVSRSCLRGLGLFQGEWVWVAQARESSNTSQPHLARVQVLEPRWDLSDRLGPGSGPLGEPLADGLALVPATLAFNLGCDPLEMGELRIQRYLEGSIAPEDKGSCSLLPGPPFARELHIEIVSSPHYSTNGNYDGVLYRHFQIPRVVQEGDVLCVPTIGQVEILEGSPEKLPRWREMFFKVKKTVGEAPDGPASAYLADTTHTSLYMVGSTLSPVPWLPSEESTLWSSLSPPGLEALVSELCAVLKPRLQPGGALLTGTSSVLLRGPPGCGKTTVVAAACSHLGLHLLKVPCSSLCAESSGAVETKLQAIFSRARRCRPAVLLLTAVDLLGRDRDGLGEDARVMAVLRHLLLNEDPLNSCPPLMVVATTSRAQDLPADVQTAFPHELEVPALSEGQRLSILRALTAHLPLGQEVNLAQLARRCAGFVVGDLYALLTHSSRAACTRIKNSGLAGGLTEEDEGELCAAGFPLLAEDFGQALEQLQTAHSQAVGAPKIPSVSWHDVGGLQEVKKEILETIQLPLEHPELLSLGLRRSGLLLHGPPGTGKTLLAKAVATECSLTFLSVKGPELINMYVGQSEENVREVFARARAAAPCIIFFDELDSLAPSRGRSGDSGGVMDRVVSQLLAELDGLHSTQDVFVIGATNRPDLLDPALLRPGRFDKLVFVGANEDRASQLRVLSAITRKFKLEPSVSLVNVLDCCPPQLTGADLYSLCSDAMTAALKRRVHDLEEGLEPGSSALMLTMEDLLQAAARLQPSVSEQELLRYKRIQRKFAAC
UniProt P42338: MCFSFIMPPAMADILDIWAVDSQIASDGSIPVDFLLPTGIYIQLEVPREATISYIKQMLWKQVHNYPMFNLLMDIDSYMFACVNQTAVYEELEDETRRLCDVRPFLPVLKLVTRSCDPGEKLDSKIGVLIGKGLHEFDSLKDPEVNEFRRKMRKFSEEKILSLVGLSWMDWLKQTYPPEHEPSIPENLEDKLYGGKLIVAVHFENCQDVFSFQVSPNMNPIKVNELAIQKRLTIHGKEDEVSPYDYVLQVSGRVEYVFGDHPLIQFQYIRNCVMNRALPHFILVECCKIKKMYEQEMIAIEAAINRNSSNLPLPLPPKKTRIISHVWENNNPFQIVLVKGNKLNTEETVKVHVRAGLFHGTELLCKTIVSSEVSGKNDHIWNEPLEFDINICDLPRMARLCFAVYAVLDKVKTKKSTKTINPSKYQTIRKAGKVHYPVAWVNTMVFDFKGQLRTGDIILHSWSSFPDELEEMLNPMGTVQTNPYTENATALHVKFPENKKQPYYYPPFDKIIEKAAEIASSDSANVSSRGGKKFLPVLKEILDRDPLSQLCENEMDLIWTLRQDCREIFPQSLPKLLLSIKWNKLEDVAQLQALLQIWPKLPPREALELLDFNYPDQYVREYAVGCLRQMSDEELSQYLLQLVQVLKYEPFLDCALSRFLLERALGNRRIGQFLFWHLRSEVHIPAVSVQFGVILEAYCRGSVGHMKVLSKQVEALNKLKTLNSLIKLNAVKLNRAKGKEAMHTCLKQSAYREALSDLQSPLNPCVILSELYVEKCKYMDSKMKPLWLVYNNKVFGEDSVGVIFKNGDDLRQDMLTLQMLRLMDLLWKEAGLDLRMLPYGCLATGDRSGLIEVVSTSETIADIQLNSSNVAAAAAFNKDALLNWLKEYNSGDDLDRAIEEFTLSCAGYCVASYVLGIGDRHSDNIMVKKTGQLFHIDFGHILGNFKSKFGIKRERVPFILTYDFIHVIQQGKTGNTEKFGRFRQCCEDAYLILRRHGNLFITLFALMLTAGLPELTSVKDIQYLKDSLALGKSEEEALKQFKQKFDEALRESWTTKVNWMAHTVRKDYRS
UniProt Q9Y5Y5: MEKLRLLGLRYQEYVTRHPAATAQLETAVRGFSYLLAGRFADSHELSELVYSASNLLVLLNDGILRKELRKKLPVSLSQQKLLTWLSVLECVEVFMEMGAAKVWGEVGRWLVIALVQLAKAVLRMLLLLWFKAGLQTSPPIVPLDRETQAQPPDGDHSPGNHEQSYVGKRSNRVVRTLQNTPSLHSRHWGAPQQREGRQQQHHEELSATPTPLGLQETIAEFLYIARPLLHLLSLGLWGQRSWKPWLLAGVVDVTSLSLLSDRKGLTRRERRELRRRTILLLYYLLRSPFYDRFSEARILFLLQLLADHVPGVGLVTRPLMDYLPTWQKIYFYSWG
UniProt O15212, whole entry, looked up: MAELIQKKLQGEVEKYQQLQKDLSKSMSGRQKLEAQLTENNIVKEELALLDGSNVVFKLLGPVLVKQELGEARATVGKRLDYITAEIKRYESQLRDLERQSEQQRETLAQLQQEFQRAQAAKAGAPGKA
UniProt Q9NXJ5: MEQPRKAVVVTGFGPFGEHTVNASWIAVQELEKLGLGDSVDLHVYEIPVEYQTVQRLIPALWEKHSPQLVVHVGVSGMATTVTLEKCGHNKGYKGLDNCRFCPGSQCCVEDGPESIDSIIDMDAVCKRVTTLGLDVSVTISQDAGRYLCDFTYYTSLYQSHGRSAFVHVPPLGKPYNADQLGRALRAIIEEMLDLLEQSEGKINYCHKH

The list shows a part of the results.

Compound in the first experiment: CCCc1cc(C)[nH]c(=O)c1CNC(=O)c1cc(-c2ccnc(N3CCN(C)CC3)c2)cc2c1cnn2C(C)C
The experiment is described as follows: log2 fold change, soluble protein after heating vs DMSO (PISA); higher = thermal stabilisation; K562 cells, 10 uM, 30 min; active = over 0.2 and 3.5 SD of the protein, either way, in both replicates (recomputed). An outline of the steps: (§1)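 Soluble protein was quantified by TMTpro 16plex LC-MS/MS after channel sums were equalised. It was obtained as the supernatant after 21,000xg for 90 min from pooled aliquots of K562 cells (2×10^6 cells/mL, 10 μM compound, 30 min) heated for 3 min across 48°C-58°C and extracted in PBS with 0.5% NP-40 at 4°C. Thermal stability values are relative to control samples and come from duplicates. They are given as log2 fold changes.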
In the case of PGK1 (UniProt P00558), the log2 fold change was inactive: -0.042.
On the same count and under the same terms, with PHGDH (UniProt O43175) the figure was inactive: -0.014; with PKN2 (UniProt Q16513), inactive: 0.032; with PGLS (UniProt O95336), inactive: -0.016.
Regarding PGAM5 (UniProt Q96HS1), the log2 fold change was inactive: 0.082.
Still for that read-out and setting: to PICALM (UniProt Q13492) belongs inactive: -0.083; to PHACTR4 isoform 2 (UniProt Q8IZ21), inactive: -0.041.
Consider PHAX (UniProt Q9H814), for which the log2 fold change is inactive: -0.045.
Regarding PI4KA (UniProt P42356), the log2 fold change was inactive: 0.029.
Same read-out and setting: to PGRMC1 (UniProt O00264) belongs inactive: 0.028.
PLD3 (UniProt Q8IV08): the log2 fold change is inactive: -0.028.
Regarding PKLR (UniProt P30613), the log2 fold change is inactive: -0.015.
The same measure, in the same setting: with PIP4P1 isoform 2 (UniProt Q86T03) the figure was inactive: -0.002; with PIK3R4 (UniProt Q99570), inactive: -0.019.
Same read-out and setting: with PI4K2A (UniProt Q9BTU6) the figure was inactive: -0.036; with PFKP (UniProt Q01813), inactive: -0.002; with PIR (UniProt O00625), inactive: 0.085.
Still for that read-out and setting: with PIKFYVE (UniProt Q9Y2I7) the figure was inactive: -0.001; with PITHD1 (UniProt Q9GZP4), inactive: -0.086; with PGGT1B (UniProt P53609), inactive: -0.025.
As for PLA2G15 (UniProt Q8NCC3), the log2 fold change was inactive: -0.063.
Same read-out and setting: with PEX6 (UniProt Q13608) the figure was inactive: 0.005.
For the target PIK3CB (UniProt P42338), the log2 fold change is inactive: -0.041.
On to PHB (UniProt P35232), for which the log2 fold change is inactive: -0.007.
Still for that read-out and setting: to PEX16 isoform 2 (UniProt Q9Y5Y5) belongs inactive: -0.07; to PITPNB isoform 3 (UniProt P48739), inactive: -0.012; to PFDN6 (UniProt O15212), inactive: 0.021.
The same measure, in the same setting: to PINX1 (UniProt Q96BK5) belongs inactive: 0.212; to PGPEP1 (UniProt Q9NXJ5), inactive: 0.051.
The same measure, in the same setting: to PLCB3 (UniProt Q01970) belongs inactive: -0.032.
Turning to PJA2 (UniProt O43164), the log2 fold change was inactive: -0.024.
Still for that read-out and setting: to PIH1D1 (UniProt Q9NWS0) belongs inactive: 0.14.
On the same count and under the same terms, with PFKFB4 (UniProt Q16877) the figure was inactive: -0.006.

Compound in another experiment: CCN(CC)Cc1ccc2cc(COC(=O)Nc3ccc(C(=O)NO)cc3)ccc2c1 [givinostat]
The experiment is described as above. In short, it runs like this: as §1
In the case of PGK1 (UniProt P00558), the log2 fold change was inactive: -0.079.
Consider PHGDH (UniProt O43175), for which the log2 fold change is inactive: -0.072.
Turning to PKN2 (UniProt Q16513), the log2 fold change is inactive: 0.034.
As to PGLS (UniProt O95336), the log2 fold change was inactive: -0.029.
On the same count and under the same terms, with PGAM5 (UniProt Q96HS1) the figure was inactive: 0.032; with PICALM (UniProt Q13492), inactive: -0.007; with PHACTR4 isoform 2 (UniProt Q8IZ21), inactive: 0.085.
Same read-out and setting: to PHAX (UniProt Q9H814) belongs inactive: -0.076; to PI4KA (UniProt P42356), inactive: 0.057.
The same measure, in the same setting: to PGRMC1 (UniProt O00264) belongs inactive: -0.001; to PLD3 (UniProt Q8IV08), inactive: -0.072; to PKLR (UniProt P30613), inactive: -0.015.
As to PIP4P1 isoform 2 (UniProt Q86T03), the log2 fold change was inactive: -0.037.
Turning to PIK3R4 (UniProt Q99570), the log2 fold change was inactive: 0.008.
On the same count and under the same terms, with PI4K2A (UniProt Q9BTU6) the figure was inactive: -0.008; with PFKP (UniProt Q01813), inactive: 0.004.
Still for that read-out and setting: to PIR (UniProt O00625) belongs inactive: -0.146; to PIKFYVE (UniProt Q9Y2I7), inactive: 0.054.
On the same count and under the same terms, to PITHD1 (UniProt Q9GZP4) belongs inactive: -0.06; to PGGT1B (UniProt P53609), inactive: 0.009; to PLA2G15 (UniProt Q8NCC3), inactive: 0.019.
As to PEX6 (UniProt Q13608), the log2 fold change was inactive: -0.032.
On the same count and under the same terms, to PIK3CB (UniProt P42338) belongs inactive: 0.052; to PHB (UniProt P35232), inactive: -0.022.
Still for that read-out and setting: to PEX16 isoform 2 (UniProt Q9Y5Y5) belongs inactive: 0.006; to PITPNB isoform 3 (UniProt P48739), inactive: -0.04.
Consider PFDN6 (UniProt O15212), for which the log2 fold change was inactive: -0.014.
Turning to PINX1 (UniProt Q96BK5), the log2 fold change is inactive: 0.019.
On to PGPEP1 (UniProt Q9NXJ5), for which the log2 fold change is inactive: -0.03.
Regarding PLCB3 (UniProt Q01970), the log2 fold change was inactive: -0.014.
Take PJA2 (UniProt O43164): the log2 fold change was inactive: 0.017.
Same read-out and setting: with PIH1D1 (UniProt Q9NWS0) the figure was inactive: 0.018.
The same measure, in the same setting: with PFKFB4 (UniProt Q16877) the figure was inactive: 0.047.

Compound in a further experiment: CCN(CCCOc1ccc2c(Nc3cc(CC(=O)Nc4cccc(F)c4)[nH]n3)ncnc2c1)CCOP(=O)(O)O [barasertib]
The description is as above. An outline of the steps: as §1
Consider PGK1 (UniProt P00558), for which the log2 fold change is inactive: 0.007.
With PHGDH (UniProt O43175), the log2 fold change is inactive: 0.001.
Still for that read-out and setting: with PKN2 (UniProt Q16513) the figure was inactive: 0.106; with PGLS (UniProt O95336), inactive: 0.074.
Same read-out and setting: to PGAM5 (UniProt Q96HS1) belongs inactive: -0.027; to PICALM (UniProt Q13492), inactive: 0.018.
On the same count and under the same terms, to PHACTR4 isoform 2 (UniProt Q8IZ21) belongs inactive: 0.002; to PHAX (UniProt Q9H814), inactive: -0.008.
Regarding PI4KA (UniProt P42356), the log2 fold change is inactive: 0.044.
Still for that read-out and setting: with PGRMC1 (UniProt O00264) the figure was inactive: 0.027.
Same read-out and setting: with PLD3 (UniProt Q8IV08) the figure was inactive: -0.013; with PKLR (UniProt P30613), inactive: 0.002; with PIP4P1 isoform 2 (UniProt Q86T03), inactive: 0.001.
Still for that read-out and setting: with PIK3R4 (UniProt Q99570) the figure was inactive: 0.005.
PI4K2A (UniProt Q9BTU6): the log2 fold change was inactive: -0.011.
Regarding PFKP (UniProt Q01813), the log2 fold change is inactive: -0.007.
For the target PIR (UniProt O00625), the log2 fold change is inactive: 0.007.
Same read-out and setting: with PIKFYVE (UniProt Q9Y2I7) the figure was inactive: 0.013; with PITHD1 (UniProt Q9GZP4), inactive: 0.027; with PGGT1B (UniProt P53609), inactive: 0.035.
Consider PLA2G15 (UniProt Q8NCC3), for which the log2 fold change was inactive: 0.024.
Same read-out and setting: with PEX6 (UniProt Q13608) the figure was inactive: -0.003; with PIK3CB (UniProt P42338), inactive: 0.077; with PHB (UniProt P35232), inactive: -0.004.
On the same count and under the same terms, with PEX16 isoform 2 (UniProt Q9Y5Y5) the figure was inactive: -0.007; with PITPNB isoform 3 (UniProt P48739), inactive: -0.011.
As to PFDN6 (UniProt O15212), the log2 fold change is inactive: -0.012.
On to PINX1 (UniProt Q96BK5), for which the log2 fold change was inactive: -0.152.
Still for that read-out and setting: with PGPEP1 (UniProt Q9NXJ5) the figure was inactive: 0.098.
Same read-out and setting: with PLCB3 (UniProt Q01970) the figure was inactive: 0.018; with PJA2 (UniProt O43164), inactive: -0.004.
For PIH1D1 (UniProt Q9NWS0), the log2 fold change is inactive: -0.006.
The same measure, in the same setting: to PFKFB4 (UniProt Q16877) belongs inactive: 0.05.
